The target in this assay is MAPK14 (UniProt Q16539). The assay is described as follows: Inhibition of MAPK14 Kinase Activity.

Sequences of proteins named here, by UniProt entry; tags and fusion partners are left off.
UniProt Q16539, whole entry, looked up: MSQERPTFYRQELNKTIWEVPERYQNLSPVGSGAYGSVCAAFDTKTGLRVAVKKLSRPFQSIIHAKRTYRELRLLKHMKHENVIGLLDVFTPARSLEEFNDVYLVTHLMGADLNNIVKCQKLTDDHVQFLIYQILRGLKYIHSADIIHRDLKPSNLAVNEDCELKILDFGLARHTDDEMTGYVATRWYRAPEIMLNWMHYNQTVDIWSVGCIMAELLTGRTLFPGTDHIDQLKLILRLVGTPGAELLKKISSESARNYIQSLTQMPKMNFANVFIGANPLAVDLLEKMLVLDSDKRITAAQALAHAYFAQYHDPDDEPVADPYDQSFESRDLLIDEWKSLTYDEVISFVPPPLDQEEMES

Here are results for 1 compound from the Kinase Knowledgebase extract (Sharma et al. 2016).

Each structure is given as a SMILES string.

Consider `COC(=O)Cn1ncc2cc(-c3cc(C(=O)NC4CC4)ccc3C)ccc21`, for which the IC50 was less than 10 µM.
